Results are given in words; binding and its absence hold for the method and conditions named. Binding seen in cells or lysates may run through a third protein. Some results given as binding are weak or reduced against the parent protein; the word gives no strength. Values belong to the molecule of their own block, whether it stands above or below them.
How the values were obtained:
[1] = target: T1, Occludin (human (endogenous in HPAFII and AsPc1)) (UniProt Q16625); assay: co-IP; immunoprecipitation of Ocln from nuclear, cytoplasmic and membrane fractions of HPAFII cells, non-treated or treated with 20 uM dobutamine; antibody overnight at 4°C, A/G beads, washes in RIPA buffer; immunoblot
T1 sequence: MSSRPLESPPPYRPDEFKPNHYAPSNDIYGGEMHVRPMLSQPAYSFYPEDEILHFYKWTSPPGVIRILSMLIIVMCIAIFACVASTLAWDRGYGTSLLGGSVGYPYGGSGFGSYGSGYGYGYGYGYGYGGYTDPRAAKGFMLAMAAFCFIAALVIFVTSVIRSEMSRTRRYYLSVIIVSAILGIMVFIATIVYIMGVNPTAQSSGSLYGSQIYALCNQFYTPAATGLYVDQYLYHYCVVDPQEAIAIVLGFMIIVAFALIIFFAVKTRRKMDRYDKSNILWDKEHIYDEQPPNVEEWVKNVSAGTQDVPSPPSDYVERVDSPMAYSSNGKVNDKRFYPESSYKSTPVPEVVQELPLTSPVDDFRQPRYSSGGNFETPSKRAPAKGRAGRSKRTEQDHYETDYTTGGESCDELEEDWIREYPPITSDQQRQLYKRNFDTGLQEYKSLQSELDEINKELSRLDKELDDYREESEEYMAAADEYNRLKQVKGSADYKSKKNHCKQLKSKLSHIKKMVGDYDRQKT

Protein sequences, listed by entry. Tags and fused reporters are not part of them.
UniProt P46937: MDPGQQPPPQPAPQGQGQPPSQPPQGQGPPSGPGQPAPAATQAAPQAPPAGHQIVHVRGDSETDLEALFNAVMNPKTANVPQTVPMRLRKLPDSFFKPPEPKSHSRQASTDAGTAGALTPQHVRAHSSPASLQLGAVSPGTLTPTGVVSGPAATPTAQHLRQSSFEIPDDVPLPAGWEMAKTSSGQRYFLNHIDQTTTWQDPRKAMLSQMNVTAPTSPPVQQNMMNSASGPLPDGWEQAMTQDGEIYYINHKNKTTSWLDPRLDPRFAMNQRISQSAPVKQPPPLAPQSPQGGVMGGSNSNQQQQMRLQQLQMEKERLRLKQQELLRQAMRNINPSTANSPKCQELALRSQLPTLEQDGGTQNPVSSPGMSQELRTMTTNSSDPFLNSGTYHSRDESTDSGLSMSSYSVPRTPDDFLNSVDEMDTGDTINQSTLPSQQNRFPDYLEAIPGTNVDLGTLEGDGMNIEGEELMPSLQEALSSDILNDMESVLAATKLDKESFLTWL
UniProt P07947: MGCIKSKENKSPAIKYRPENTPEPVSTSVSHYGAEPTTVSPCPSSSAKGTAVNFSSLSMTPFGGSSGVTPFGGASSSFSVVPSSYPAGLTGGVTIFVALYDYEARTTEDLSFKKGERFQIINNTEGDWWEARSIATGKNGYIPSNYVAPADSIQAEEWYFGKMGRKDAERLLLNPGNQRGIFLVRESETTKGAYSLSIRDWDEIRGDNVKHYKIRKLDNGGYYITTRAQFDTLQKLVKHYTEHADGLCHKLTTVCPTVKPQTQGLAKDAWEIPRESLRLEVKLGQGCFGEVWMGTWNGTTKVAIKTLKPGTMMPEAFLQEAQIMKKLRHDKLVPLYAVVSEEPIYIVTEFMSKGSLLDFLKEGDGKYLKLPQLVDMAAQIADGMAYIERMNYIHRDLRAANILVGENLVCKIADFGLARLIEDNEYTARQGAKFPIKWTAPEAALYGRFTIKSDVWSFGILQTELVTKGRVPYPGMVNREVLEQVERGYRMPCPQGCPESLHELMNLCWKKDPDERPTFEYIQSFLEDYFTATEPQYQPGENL

[2] = target: c-Yes associated protein (human (endogenous in HPAFII and AsPc1)) (UniProt P46937); assay: co-IP; immunoprecipitation of YAP from AsPc1 cells (cellular distributions compared), immunoblot for Ocln; antibody overnight at 4°C, A/G beads, washes in RIPA buffer
[3] = target: c-Yes associated protein (human (endogenous in HPAFII and AsPc1)) (UniProt P46937); assay: co-IP; immunoprecipitation of YAP from HPAFII cells (cellular distributions compared), immunoblot for Ocln; antibody overnight at 4°C, A/G beads, washes in RIPA buffer
[4] = target: T2, Occludin (human (endogenous in HPAFII and AsPc1)), Q16625; assay: co-IP; immunoprecipitation of Ocln from nuclear, cytoplasmic and membrane fractions of HPAFII cells, non-treated or treated with 20 uM dobutamine; antibody overnight at 4°C, A/G beads, washes in RIPA buffer; immunoblot; settings: remark: other sources report otherwise
T2 chain: T1 sequence

- binding [1]: binds
Molecule: c-Yes (from UniProt P07947 1-543)

- binding [2]: binds
- binding [3]: binds
B1: Occludin (protein, UniProt Q16625 1-522)
chain: T1 sequence

- binding [4]: binds
B2: MARVELD2 (tricellulin), Q8N4S9 1-558 (protein)
chain: MSNDGRSRNRDRRYDEVPSDLPYQDTTIRTHPTLHDSERAVSADPLPPPPLPLQPPFGPDFYSSDTEEPAIAPDLKPVRRFVPDSWKNFFRGKKKDPEWDKPVSDIRYISDGVECSPPASPARPNHRSPLNSCKDPYGGSEGTFSSRKEADAVFPRDPYGSLDRHTQTVRTYSEKVEEYNLRYSYMKSWAGLLRILGVVELLLGAGVFACVTAYIHKDSEWYNLFGYSQPYGMGGVGGLGSMYGGYYYTGPKTPFVLVVAGLAWITTIIILVLGMSMYYRTILLDSNWWPLTEFGINVALFILYMAAAIVYVNDTNRGGLCYYPLFNTPVNAVFCRVEGGQIAAMIFLFVTMIVYLISALVCLKLWRHEAARRHREYMEQQEINEPSLSSKRKMCEMATSGDRQRDSEVNFKELRTAKMKPELLSGHIPPGHIPKPIVMPDYVAKYPVIQTDDERERYKAVFQDQFSEYKELSAEVQAVLRKFDELDAVMSRLPHHSESRQEHERISRIHEEFKKKKNDPTFLEKKERCDYLKNKLSHIKQRIQEYDKVMNWDVQGYS

From paper PMC4574897
